# In USRE50535:
# The chains behind the UniProt entries cited, without tags or fusion partners. Where a name states a change or a piece, a line headed by the entry shows the natural chain unless it says otherwise. Residues count along the entry.
# UniProt P01137, residues 30-278: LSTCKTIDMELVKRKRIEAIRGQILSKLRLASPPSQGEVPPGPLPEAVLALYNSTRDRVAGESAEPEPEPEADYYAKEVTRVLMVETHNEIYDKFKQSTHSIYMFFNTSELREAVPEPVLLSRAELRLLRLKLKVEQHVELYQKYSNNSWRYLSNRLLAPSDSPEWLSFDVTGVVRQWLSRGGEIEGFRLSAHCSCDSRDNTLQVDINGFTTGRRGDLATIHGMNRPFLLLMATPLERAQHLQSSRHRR
# UniProt P11464: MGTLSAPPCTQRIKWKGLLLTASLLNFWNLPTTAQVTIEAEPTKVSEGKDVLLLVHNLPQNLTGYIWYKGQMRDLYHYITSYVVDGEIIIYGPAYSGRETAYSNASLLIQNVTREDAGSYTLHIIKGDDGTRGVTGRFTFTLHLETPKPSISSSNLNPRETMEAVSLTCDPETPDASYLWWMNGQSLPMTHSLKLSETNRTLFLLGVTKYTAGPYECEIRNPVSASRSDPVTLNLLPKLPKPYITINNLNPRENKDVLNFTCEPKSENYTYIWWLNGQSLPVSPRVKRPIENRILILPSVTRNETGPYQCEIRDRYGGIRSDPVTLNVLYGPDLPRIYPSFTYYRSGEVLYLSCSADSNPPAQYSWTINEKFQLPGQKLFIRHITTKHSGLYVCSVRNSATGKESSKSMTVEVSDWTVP
# No constants are given. Whether binding was seen depends on the method and setting. Some results given as binding are weak or reduced against the parent protein; the word gives no strength.
# Assays:
# [1] = target: latency associated peptide (LAP) of TGFβ1 (UniProt P01137); assay: SPR
# [2] = target: small latent TGF complex (SLC) of TGFβ1 (UniProt P01137); assay: SPR
substance,measurement,setting,value
PSG1-Fc (from UniProt P11464 35-419) (Fc fusion),binding,[1],binds
same,binding,[2],binds
